Assay results: paper PMC2691479, “SNX4 in Complex with Clathrin and Dynein: Implications for Endosome Movement” (PLoS ONE, 2009)

Key:
[1] = biological target: T1, Sorting nexin 4 (SNX4), endogenous (human (endogenous in HEK293)) (UniProt O95219); assay: condition: only cells treated with 100 nM wortmannin for 30 min; co-IP; as a1, but HEK293 cells treated with 100 nM wortmannin for 30 min before lysis; anti-SNX4 immunoprecipitation overnight at 4°C
T1 sequence: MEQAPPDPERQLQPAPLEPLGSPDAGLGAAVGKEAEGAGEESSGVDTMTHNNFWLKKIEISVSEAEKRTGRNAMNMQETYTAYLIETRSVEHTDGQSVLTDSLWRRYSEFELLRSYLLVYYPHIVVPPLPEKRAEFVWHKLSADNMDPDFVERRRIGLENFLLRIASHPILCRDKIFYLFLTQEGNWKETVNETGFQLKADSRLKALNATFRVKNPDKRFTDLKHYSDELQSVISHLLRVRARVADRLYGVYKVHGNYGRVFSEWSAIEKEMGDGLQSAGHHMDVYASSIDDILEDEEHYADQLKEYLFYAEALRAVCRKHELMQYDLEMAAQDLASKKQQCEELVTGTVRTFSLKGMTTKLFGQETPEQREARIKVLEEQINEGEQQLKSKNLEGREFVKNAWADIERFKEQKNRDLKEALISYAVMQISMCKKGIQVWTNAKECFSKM

[2] = biological target: T1, Sorting nexin 4 (SNX4), endogenous (human (endogenous in HEK293)); assay: co-IP; anti-SNX4 (E-18) on Protein A Sepharose, HEK293 lysate (0.1 M NaCl, 10 mM Na2HPO4 pH 7.4, 1 mM EDTA, 1% Triton X-100), overnight at 4°C, Western blot; cells untreated, or transfected with control, SNX4 or CHC siRNA, or treated with nocodazole for 30 min

binding [1]: no binding
binding [2]: binds
Substance: tubulin, endogenous (human (endogenous in HEK293))

These are yes or no findings as the source states them, for the method shown. Binding seen in cells or lysates may run through a third protein. For some assays here: Binding can be weak; no strength is given.
